Here are results for three molecules from paper PMC5024129, “Adipokinetic hormones and their G protein-coupled receptors emerged in Lophotrochozoa” (Scientific Reports, 2016).

Protein sequences, listed by entry. Tags and fused reporters are not part of them. Residues count along the entry.
UniProt B1VCT5, 1-472: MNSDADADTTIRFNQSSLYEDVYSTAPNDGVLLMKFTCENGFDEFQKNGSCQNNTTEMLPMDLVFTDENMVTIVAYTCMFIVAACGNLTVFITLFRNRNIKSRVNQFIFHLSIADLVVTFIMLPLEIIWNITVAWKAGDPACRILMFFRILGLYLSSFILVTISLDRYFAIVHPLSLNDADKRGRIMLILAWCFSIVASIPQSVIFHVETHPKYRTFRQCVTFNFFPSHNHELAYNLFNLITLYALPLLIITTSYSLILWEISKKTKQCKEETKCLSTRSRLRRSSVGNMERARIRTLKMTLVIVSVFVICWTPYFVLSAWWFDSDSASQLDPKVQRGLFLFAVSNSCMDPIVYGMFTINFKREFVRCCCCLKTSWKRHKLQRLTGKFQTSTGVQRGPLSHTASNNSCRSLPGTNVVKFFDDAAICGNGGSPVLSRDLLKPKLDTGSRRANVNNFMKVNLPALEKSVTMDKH

Each structure is given as a SMILES string. The structures given here were assigned with low confidence; some may be wrong.

The test concerns the target C. gigas AKHR1-A (Magallana gigas, UniProt B1VCT5). Briefly: Bioluminescence assay in CHO/G-16 cells stably expressing C. gigas AKHR1-A (apoaequorin, IP3/Ca2+ cascade). The test is classed as cell-based, Crassostrea gigas. To be noted: 10^−6 M peptide, CHO/G-16/AKHR1-A cells, Fig. 5A, n = 3.
For `CC(C)[C@H](NC(=O)[C@@H]1CCC(=O)N1)C(=O)N[C@H](C(=O)N[C@@H](Cc1ccccc1)C(=O)N[C@@H](CO)C(=O)N[C@@H](CCCNC(=N)N)C(=O)N[C@@H](CC(=O)O)C(=O)N[C@@H](Cc1c[nH]c2ccccc12)C(=O)N[C@@H](CC(N)=O)C(=O)N1CCC[C@H]1C(N)=O)[C@@H](C)O`, the “Bioluminescence response (activation) of AKHR1-A” value (from here on “Bioluminescence response”) is “can be activated”.

Consider `CC(C)[C@H](NC(=O)[C@@H]1CCC(=O)N1)C(=O)N[C@H](C(=O)N[C@@H](Cc1ccccc1)C(=O)N[C@@H](CO)C(=O)N[C@@H](CCCCN)C(=O)NCC(=O)N[C@@H](Cc1c[nH]c2ccccc12)C(=O)NCC(=O)N1CCC[C@H]1C(N)=O)[C@@H](C)O`, for which the “Bioluminescence response” value is on record as “can be activated”.

On to `CC(C)[C@H](NC(=O)[C@@H]1CCC(=O)N1)C(=O)N[C@H](C(=O)N[C@@H](Cc1ccccc1)C(=O)N[C@@H](CO)C(=O)N[C@@H](CCCNC(=N)N)C(=O)N[C@@H](CC(=O)O)C(=O)N[C@@H](Cc1c[nH]c2ccccc12)C(=O)N[C@@H](CO)C(=O)N1CCC[C@H]1C(N)=O)[C@@H](C)O`, for which the “Bioluminescence response” value is reported as “can be activated”.
